Where only a bound is given, the exact number is not on record here.

One experiment deals with endogenous kinase (293). The experiment is described as follows: Synuclein phosphorylation by endogenous kinase in HEK-293 cells (synuclein + vector). Type of experiment: cell-based, human. As to the method:
All vectors had the sequence coding for the protein of interest. Transfection was accomplished using Lipofectamine 2000 (Invitrogen, Carlsbad, Calif.) with 0.08 μg vector. Cells were washed and harvested 48 hours post-transfection. A Micro BCA (Pierce) total protein assay and total synuclein and phospho-synuclein ELISAs were performed on each plate of treated cells.

Experiment [1] relates to synuclein phosphorylation in the cellular paradigms tested. The experiment is described as follows: Inhibition of synuclein phosphorylation, several cellular paradigms. As to conditions: in any of the cells or in the in vitro assay. Type of experiment: cell-based.

In general, EC50 refers to the concentration needed to bring the measured effect to its halfway point. Consider `CO[C@@H]1[C@H](N(C)C(=O)c2ccccc2)C[C@H]2O[C@]1(C)n1c3ccccc3c3c4c(c5c6ccccc6n2c5c31)C(=O)NC4` [N-Benzoyl Staurosporine, N-benzoyl staurosporine], for which the EC50 with endogenous kinase (293) was > 100 µM. Further, in experiment [1], the “inhibition of 50% of synuclein phosphorylation” value was “did not inhibit 50% of synuclein phosphorylation”.

These data come from patent US8148089B2, “Alpha-synuclein kinase” (Elan Pharma International Limited, priority 2006, dated 2012).
